Measured values published in article doi:10.1101/2025.02.25.640081.
These are yes or no findings as the source states them, for the method shown. Binding seen in cells or lysates may run through a third protein. Some binding calls cover weakened binding; strength is not graded here.

Protein sequences, listed by entry. Tags and fused reporters are not part of them.
UniProt Q13838, whole entry: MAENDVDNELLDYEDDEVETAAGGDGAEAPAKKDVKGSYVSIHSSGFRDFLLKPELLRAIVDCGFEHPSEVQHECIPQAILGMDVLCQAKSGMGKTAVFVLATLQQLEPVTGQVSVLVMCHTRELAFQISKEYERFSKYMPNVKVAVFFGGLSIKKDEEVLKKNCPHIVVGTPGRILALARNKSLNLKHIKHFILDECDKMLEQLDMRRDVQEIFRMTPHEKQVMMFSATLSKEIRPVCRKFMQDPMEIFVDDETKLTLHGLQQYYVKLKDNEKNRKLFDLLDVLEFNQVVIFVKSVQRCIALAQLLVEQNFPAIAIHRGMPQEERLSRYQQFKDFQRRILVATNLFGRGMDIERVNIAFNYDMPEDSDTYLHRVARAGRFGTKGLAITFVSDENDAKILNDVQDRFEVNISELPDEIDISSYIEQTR

Target: T1, CHTOP (human (endogenous in K562)) (UniProt Q9Y3Y2)
T1 sequence: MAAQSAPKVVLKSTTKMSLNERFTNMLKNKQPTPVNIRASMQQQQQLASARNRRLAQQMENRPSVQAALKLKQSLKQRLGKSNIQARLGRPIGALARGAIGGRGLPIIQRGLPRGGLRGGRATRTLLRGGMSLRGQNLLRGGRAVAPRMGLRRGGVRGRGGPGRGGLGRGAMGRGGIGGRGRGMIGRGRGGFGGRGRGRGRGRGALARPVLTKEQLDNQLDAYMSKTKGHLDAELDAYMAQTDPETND
Assay: cross-linking

DEAD-box RNA helicase DDX39B (from UniProt Q13838 1-428)
binding: binds
